This is an account of results in patent US20220243213A1, “ANTI-CRISPR INHIBITORS” (THE REGENTS OF THE UNIVERSITY OF CALIFORNIA, published 2022).

The target of data set [1] is T1, Aca2 ZF40 (Pectobacterium phage ZF40) (UniProt H9C180).
T1 sequence (looked up, limits assumed): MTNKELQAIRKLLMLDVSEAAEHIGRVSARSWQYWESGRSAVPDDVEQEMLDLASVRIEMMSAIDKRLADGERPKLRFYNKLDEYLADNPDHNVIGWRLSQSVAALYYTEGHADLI
Nature of the data set: activity in cells. To be noted: no repression of non-cognate promoter; protein in cells.

The subject of data set [2] is T2, Aca3 (Neisseria meningitidis 2842STDY5881035).
T2 sequence: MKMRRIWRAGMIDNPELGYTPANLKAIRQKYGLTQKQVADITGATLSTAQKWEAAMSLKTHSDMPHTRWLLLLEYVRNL
Briefly: activity in cells. To be noted: protein in cells.

Data set [3] deals with Aca1 (Pseudomonas aeruginosa phage JBD30). Nature of the data set: EMSA. To be noted: single shifted band only; purified recombinant protein; variant of acrIF1 promoter IR1-IR2 oligo WT. In general terms: In EMSA bound probe runs differently from free probe, usually more slowly.

For some assays here: Negatives hold for the conditions tested. For some assays here: Tags and fusion partners may be left off the protein sequences shown. For some assays here: A weaker result is weaker than the reference pair of the same experiment. For some assays here: For at least one entry, the source does not settle the construct or the ends of the probe.

“AATTGAATCCGCAATGGTGAAATATCGACAATGAACGACAATACACACACCCTTCCCCCGCGCCACCTGTCCGTCGCTCCCATGCTCGACTGTATCTACTGAAAAATAATATATTGAAAAATAATATATAATATATTTTTATTATTCTTATGGTGCAAATAAAGCACATTGTGCATTGGAAATAAAAACGGCAAATTAATTACCTTTGTTTTTAAAGGTTTATTAAATTGGCGGTTTTTTGTTTGAAAAAATGCTTGTGATACATCATTTTTTGATGTAGTATACACACATCGGCAGACAACAAGCCTGCCACCGACACCTTGACGGCTTCAAGGATAAACGAAAGGATTTCAAA (double strand) [Nme 2842STDY5881035 acrIIC3 upstream region]”: in data set [1], the “activity on this sequence” value is reported as “not active”. The same sequence gave an activity on this sequence (fold repression) in data set [2] (lacZ reporter in E. coli, Aca3 with N-terminal extension) of 20. On to “ACAAGCGGCACACTGTGCCTATTGCGAGCTAGTCCCAATGTGCCTAATCTAACG (double strand) [IR2 mutant oligo]”, for which the binding result in data set [3] is “binds more weakly”. Still for that read-out and setting: in the case of “ACAAGCGTCGTACTGTGCCTATTGCGAATTAGGCACAATGTGCCTAATCTAACG (double strand) [IR1 mutant oligo]” it was “binds more weakly”. In the case of “AGCCTCACCTCCGGCGTTGCCGTGGCGCTGTGTGATTTACAGGAAATAAAAAGGCCACGAATGCGGCCTTAGCGATTAAAAAATATGAAATGCCTTGCTTGTTCGCGATTGCGAACATATAATTTATTCATCGGTTCGAG (double strand) [ZF40 acrIF8 promoter region]”, the “activity on this sequence” value in data set [2] (no repression of non-cognate promoter) is listed as “not active”.
